Reference: publication PMC7018950
No constants are given. Whether binding was seen depends on the method and setting. In cells and extracts the contact can be indirect. Binding calls can cover weak binding; strength is not graded here.

What was measured:
[1] = target: His6-tagged snapdragon chalcone isomerase-like protein (His6-AmCHIL) (Antirrhinum majus); assay: pull-down; Method II: His6-AmCHIL added to extract of red snapdragon petals, Ni2+-coated Sepharose beads, 4 C 1 h; washes 0.05 M HEPES-NaOH pH 7.5; elution 500 mM imidazole; immunoblot with anti-AmCHS IgG; control without His6-AmCHIL; only the target purified
[2] = target: His6-tagged snapdragon CHIL (Antirrhinum majus (snapdragon)); assay: pull-down; Method II: His6-AmCHIL added to the extract of red snapdragon petals, Ni2+-coated Sepharose beads, 4 °C 1 h; wash 0.05 M HEPES-NaOH pH 7.5; elution with 500 mM imidazole; immunoblot with anti-AmCHS IgG; control with water for His6-AmCHIL; only the target purified

B1: snapdragon chalcone synthase (AmCHS) of the petal extract (enzyme, UniProt P06515 1-390)
chain: MVTVEEVRRAQRAEGPATVLAIGTATPANCVDQSTYPDYYFRITNSEHMTELKEKFKRMCDKSNIKRRYMHLTEEILKENPAMCEYMAPSLDARQDIVVVEVPRLGKEAAQKAIKEWGQPKSKITHLVFCTTSGVDMPGADYQLTKLLGLRPSVKRFMMYQQGCFAGGTVLRMAKDLAENNAGARVLVVCSEITAVTFRGPADTHLDSLVGQALFGDGAAAVIVGSDPVVGVERPLFQIVTAAQTLLPDSHGAIDGHLREVGLTFHLLKDVPGLISKNIEKSLKEAFDPLGISDWNSVFWIAHPGGPAILDQVEEKLGLKPEKLRSTRQVLSEYGNMSSACVLFILDEMRKSSAKEGMSTTGEGLDWGVLFGFGPGLTVETVVLHSVPLN
In the case of B1, the binding [1] is reported as “binds”.

B2: AmCHS of snapdragon petal extract (enzyme, UniProt P06515 1-390)
chain: B1 chain
B2 was tested, and the binding [2] was “binds”.
